Results from article doi:10.1101/2023.12.02.569699 (bioRxiv, 2023).
No constants are given. Whether binding was seen depends on the method and setting. Some binding calls cover weakened binding; strength is not graded here.

The chains behind the UniProt entries cited, without tags or fusion partners. Residues count along the entry.
UniProt Q99496, whole entry: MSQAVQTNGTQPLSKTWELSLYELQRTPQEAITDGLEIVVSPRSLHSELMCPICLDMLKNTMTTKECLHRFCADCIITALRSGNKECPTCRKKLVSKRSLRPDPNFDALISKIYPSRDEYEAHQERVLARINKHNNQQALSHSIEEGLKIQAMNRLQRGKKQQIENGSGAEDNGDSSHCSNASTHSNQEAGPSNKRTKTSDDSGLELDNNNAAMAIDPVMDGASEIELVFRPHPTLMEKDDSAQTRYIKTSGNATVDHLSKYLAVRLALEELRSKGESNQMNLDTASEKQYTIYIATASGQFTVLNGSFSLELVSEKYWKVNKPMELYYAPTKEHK
UniProt Q13263, 1-501: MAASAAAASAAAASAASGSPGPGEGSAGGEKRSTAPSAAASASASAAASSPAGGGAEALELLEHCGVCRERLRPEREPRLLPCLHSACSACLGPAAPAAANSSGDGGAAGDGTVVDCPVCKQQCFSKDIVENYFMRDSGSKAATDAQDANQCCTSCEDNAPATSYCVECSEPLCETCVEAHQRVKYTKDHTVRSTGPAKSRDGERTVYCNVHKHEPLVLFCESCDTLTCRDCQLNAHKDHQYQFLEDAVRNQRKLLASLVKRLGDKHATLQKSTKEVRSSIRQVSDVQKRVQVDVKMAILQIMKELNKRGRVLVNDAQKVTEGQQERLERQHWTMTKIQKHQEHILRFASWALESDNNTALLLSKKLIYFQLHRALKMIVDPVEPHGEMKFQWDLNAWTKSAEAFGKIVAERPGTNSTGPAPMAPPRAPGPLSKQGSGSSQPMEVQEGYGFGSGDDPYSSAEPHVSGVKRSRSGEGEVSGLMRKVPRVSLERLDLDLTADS

Legend:
[1] = biological target: RING1B (H. sapiens) (UniProt Q99496); test: SEC
[2] = biological target: TRIM28 (1-501) (UniProt Q13263); test: co-purification

| Substance | binding [1] | binding [2] |
| --- | --- | --- |
| CBX7^CD(HP1β) (from UniProt Q8VDS3 1-7; P83916 18-72; Q8VDS3 70-158) | binds | – |
| HP1β^CD(CBX7) (from UniProt P83916 1-17; Q8VDS3 8-69; P83916 73-185) | – | binds |
